Earlier results as cited in patent US6534540B2, “Combination and method of treatment of cancer utilizing a COX-2 inhibitor and a 3-hydroxy-3-methylglutaryl-coenzyme-a (HMG-CoA) reductase inhibitor” (priority 2000, dated 2003).
At least one structure is not confirmed: it was looked up by name or label, or the drawing left a doubt.

Tests used:
adenomatous polyps = details: familial adenomatous polyposis
[1] = test system: F(2)-isoprostanes and thiobarbituric acid-reactive substances (TBARS); details: high cholesterol diet, continued high serum cholesterol; versus animals not treated

Row | Compound | adenomatous polyps (adenomatous polyps) | rate of production of F(2)-isoprostanes and TBARS [1]
1 | Cc1ccc(-c2cc(C(F)(F)F)nn2-c2ccc(S(N)(=O)=O)cc2)cc1 [celecoxib, 4-[5-(4-methylphenyl)-3-(trifluoromethyl)-1H-pyrozol-1-yl]benzenesulfonamide] | caused a reduction in adenomatous polyps | –
2 | CCC(C)(C)C(=O)O[C@H]1C[C@@H](C)C=C2C=C[C@H](C)[C@H](CC[C@@H]3C[C@@H](O)CC(=O)O3)[C@H]21 [simvastatin] | – | lower rate of production
